Test results taken from the supplement of paper PMC10849652.
The list shows a part of the results.

Protein sequences, listed by entry. Tags and fused reporters are not part of them. Lines headed by an entry give the natural chain unless they say otherwise; changes in a name come on top.
UniProt Q15058: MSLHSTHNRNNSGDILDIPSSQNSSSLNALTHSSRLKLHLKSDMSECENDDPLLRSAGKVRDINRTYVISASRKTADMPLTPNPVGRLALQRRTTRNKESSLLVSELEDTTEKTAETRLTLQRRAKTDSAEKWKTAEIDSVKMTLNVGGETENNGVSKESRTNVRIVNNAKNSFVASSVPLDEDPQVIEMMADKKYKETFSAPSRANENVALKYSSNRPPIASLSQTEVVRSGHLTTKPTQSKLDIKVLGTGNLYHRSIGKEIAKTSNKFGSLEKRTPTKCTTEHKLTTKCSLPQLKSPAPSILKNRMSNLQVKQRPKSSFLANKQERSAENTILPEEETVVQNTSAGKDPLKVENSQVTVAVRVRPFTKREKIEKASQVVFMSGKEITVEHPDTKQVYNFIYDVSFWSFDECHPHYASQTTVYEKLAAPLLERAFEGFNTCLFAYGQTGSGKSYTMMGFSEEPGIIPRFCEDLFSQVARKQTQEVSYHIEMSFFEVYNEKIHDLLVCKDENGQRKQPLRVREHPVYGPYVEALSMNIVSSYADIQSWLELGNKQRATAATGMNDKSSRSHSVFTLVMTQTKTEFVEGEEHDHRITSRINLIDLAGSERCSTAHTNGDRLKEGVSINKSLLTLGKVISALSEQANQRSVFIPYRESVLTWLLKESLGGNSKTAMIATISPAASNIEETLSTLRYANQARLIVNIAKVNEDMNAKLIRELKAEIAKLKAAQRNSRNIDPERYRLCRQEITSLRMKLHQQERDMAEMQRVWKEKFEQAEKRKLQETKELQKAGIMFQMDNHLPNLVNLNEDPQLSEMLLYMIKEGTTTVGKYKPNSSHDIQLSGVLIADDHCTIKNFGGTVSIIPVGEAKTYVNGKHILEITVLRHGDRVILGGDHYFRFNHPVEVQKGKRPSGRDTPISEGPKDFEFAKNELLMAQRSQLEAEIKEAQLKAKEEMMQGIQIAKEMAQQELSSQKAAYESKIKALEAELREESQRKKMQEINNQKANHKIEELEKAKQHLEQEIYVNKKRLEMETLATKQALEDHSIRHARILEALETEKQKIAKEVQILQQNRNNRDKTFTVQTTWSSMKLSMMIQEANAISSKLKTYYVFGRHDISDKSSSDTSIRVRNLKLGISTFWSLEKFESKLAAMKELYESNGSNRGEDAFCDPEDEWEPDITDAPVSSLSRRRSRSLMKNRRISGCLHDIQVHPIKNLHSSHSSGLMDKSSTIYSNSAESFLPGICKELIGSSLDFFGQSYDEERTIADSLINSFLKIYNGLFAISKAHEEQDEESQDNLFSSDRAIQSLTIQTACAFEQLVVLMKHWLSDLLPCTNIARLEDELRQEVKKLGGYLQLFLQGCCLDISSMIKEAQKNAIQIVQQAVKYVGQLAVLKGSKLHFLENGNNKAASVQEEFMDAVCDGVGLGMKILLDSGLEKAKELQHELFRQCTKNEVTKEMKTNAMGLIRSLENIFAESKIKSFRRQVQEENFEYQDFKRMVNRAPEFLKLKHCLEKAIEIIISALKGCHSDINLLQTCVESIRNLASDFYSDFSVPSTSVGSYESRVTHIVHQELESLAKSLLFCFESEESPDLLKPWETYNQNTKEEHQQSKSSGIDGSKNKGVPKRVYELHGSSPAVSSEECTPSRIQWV
UniProt Q06136: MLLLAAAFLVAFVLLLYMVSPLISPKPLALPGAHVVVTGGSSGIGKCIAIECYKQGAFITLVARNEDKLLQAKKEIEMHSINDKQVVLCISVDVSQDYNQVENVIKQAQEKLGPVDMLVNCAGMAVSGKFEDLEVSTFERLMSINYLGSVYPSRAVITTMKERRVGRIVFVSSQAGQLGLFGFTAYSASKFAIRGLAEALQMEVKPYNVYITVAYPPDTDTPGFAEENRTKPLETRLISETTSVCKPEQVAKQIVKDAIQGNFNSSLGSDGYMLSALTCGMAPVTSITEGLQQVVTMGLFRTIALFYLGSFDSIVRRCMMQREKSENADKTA
UniProt O43813, whole entry, looked up: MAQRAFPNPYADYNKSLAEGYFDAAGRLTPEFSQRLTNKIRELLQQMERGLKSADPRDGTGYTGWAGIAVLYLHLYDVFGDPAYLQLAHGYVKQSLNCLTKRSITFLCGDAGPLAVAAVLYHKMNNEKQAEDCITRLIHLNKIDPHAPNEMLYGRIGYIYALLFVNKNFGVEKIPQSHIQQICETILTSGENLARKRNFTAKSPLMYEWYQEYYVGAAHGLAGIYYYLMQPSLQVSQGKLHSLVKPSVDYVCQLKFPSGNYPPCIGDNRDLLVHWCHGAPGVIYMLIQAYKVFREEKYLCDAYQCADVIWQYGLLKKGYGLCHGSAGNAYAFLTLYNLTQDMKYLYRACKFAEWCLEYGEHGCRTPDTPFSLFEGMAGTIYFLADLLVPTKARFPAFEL
UniProt Q9BQD3: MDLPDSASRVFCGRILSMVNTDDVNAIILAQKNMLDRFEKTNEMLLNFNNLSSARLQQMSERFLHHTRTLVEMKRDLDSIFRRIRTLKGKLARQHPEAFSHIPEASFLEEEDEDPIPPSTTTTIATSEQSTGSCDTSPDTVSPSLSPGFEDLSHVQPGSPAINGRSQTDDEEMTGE
UniProt O00139: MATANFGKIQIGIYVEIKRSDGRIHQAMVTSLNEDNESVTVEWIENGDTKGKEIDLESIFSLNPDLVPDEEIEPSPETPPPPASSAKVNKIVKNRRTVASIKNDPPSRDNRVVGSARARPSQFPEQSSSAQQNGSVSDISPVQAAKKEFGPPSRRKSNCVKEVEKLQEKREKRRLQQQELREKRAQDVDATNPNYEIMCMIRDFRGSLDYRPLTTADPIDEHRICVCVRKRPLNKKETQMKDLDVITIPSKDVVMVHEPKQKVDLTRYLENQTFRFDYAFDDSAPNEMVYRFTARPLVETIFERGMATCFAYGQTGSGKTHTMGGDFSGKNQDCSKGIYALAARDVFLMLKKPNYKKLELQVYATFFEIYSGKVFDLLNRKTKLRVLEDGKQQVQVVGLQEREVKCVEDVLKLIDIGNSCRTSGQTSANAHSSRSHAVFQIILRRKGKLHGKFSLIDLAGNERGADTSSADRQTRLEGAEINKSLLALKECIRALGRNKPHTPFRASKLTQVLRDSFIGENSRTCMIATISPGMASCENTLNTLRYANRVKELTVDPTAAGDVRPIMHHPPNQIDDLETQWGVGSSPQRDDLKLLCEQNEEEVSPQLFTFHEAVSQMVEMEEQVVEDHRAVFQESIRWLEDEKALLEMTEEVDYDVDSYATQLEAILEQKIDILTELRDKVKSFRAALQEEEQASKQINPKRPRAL
UniProt Q9H9P8: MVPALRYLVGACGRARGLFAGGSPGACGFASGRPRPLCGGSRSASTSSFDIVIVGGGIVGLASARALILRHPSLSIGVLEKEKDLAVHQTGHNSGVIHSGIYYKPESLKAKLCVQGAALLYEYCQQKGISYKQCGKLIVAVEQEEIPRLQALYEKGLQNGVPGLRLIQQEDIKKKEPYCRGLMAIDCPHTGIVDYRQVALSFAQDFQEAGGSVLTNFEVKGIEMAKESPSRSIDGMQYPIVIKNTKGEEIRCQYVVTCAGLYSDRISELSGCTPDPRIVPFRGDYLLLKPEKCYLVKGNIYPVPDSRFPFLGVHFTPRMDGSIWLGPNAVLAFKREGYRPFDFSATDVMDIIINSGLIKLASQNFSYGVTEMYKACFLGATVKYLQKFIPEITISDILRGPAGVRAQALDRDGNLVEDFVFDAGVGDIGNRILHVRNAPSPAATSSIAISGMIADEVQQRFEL
UniProt O95235: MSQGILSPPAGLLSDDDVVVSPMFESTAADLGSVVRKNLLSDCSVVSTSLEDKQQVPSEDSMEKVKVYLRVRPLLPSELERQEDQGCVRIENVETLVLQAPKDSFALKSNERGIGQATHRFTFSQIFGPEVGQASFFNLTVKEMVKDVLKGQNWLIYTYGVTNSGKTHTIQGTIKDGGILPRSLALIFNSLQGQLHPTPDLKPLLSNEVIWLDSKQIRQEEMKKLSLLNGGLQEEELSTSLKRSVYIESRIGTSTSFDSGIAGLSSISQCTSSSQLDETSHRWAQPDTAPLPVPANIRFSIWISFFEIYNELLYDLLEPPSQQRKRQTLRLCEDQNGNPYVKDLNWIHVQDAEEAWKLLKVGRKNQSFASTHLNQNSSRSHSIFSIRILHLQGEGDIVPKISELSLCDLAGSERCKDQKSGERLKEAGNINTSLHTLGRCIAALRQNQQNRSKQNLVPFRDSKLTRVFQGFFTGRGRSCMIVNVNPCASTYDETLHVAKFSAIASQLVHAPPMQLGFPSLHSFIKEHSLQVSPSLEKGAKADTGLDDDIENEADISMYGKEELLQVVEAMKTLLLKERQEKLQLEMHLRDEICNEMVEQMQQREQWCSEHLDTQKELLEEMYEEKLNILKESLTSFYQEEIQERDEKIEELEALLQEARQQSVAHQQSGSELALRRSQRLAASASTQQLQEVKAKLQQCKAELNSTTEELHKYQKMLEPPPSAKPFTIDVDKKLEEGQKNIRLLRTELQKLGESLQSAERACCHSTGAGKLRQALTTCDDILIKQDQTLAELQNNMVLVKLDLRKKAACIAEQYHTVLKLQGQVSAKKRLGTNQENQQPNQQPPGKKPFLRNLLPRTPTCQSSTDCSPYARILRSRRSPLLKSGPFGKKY
UniProt Q99661: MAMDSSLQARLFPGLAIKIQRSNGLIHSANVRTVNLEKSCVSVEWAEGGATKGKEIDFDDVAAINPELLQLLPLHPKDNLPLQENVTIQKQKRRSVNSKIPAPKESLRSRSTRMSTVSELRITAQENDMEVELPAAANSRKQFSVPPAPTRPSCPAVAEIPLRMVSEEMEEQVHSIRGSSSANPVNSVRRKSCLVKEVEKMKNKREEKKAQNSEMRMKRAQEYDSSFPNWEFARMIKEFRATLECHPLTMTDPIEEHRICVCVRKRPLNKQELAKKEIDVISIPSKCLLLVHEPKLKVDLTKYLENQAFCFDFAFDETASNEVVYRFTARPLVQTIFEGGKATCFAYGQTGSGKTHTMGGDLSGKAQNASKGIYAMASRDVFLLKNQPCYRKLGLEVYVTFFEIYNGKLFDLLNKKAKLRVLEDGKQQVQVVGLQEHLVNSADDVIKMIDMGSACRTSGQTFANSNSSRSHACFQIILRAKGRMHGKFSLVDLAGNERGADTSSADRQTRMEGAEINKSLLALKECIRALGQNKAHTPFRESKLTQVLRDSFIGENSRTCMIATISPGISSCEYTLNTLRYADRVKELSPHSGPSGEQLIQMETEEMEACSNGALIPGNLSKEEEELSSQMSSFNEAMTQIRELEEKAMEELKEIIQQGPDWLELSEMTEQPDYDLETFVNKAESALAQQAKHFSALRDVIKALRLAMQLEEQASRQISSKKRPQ
UniProt Q14974, whole entry, looked up: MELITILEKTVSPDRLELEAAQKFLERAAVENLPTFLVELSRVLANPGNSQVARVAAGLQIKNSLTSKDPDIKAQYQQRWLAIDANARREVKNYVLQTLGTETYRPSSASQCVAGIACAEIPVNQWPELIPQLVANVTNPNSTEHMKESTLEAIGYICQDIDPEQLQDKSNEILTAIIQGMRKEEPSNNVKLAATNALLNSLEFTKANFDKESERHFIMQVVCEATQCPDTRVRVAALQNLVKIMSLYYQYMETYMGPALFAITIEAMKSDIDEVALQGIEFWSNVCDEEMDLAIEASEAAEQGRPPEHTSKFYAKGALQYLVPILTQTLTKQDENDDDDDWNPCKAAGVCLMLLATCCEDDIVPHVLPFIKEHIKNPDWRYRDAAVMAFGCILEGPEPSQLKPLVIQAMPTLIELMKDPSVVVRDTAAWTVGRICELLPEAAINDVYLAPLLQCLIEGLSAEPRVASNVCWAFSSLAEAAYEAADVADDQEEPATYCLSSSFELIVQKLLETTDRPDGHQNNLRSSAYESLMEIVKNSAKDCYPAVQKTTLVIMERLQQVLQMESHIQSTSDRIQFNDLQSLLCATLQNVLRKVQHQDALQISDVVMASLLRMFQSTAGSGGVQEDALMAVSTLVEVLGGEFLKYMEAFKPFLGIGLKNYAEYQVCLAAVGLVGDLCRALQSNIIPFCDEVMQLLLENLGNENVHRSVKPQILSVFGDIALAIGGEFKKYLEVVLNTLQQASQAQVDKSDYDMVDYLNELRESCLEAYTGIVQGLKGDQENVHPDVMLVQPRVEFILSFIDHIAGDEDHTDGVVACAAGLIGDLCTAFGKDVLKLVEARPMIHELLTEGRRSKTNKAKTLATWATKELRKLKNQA
UniProt P50053: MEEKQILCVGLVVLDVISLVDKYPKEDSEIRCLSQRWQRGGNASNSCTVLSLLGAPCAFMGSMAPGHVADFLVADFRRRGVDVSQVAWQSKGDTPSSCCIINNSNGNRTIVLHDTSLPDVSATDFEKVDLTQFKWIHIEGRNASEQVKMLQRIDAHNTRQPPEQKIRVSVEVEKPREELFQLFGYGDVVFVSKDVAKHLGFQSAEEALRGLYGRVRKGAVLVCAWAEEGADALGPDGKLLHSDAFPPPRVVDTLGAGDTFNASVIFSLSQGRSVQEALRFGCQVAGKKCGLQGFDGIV

Legend:
Experiment in all cases: log2 fold change, soluble protein after heating vs DMSO (PISA); higher = thermal stabilisation; K562 lysate, 10 uM; active = over 0.2 and 3.5 SD of the protein, either way, in both replicates (recomputed)
[1] = compound: C1=CC=C(C=C1)[C@H](COC2=CC3=C(C=C2)NC(=O)N3)NC(=O)C4=CC=CN(C4=O)CC5=CC(=C(C=C5)F)F
Outline: (§1)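 Quantification was by TMTpro 16plex LC-MS/MS with equalised channel sums, applied to the supernatant after 21,000xg for 90 min. Samples were crude K562 extract at 1 mg/mL protein in PBS pH 7.4 with 1 mM MgCl2, treated with 10 μM compound for 30 min, heated for 3 min across 48°C-58°C, pooled and brought to 0.5% NP-40 at 4°C. Values are log-two fold changes in thermal stability relative to solvent controls, from duplicates.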

[2] = compound: CC1=C(SC2=C1C(=N[C@H](C3=NN=C(N32)C)CC(=O)N)C4=CC=C(C=C4)Cl)C
Outline: as §1

[3] = compound: CC1=C2C(=CC=C1)N=C(N(C2=O)C3=CC=CC=C3C)CN4C=NC5=C(N=CN=C54)N
Outline: as §1

[4] = compound: Cc1sc2c(c1C)C(c1ccc(Cl)cc1)=N[C@@H](CC(=O)OC(C)(C)C)c1nnc(C)n1-2
Outline: as §1

[5] = compound: c1ccc([C@@H]2C[C@H]2NC2CCNCC2)cc1
Outline: as §1

Measured: log2 fold change

LACTB (UniProt P83111)
inactive: [1] -0.127 | [2] 0.033 | [3] -0.003 | [4] -0.011 | [5] 0.03

KIAA2013 (UniProt Q8IYS2)
inactive: [1] 0.077 | [2] -0.016 | [3] 0.046 | [4] 0.054 | [5] -0.021

KRBA1 (UniProt A5PL33)
inactive: [1] 0.034 | [2] -0.005 | [3] -0.189 | [4] 0.276 | [5] -0.085

KIF14 (UniProt Q15058)
inactive: [1] 0.028 | [2] -0.148 | [3] 0.059 | [4] -0.012 | [5] 0.039

KTN1 (UniProt Q86UP2)
inactive: [1] -0.007 | [2] -0.002 | [3] 0.012 | [4] -0.019 | [5] 0

KMT2D isoform 3 (UniProt O14686)
inactive: [1] 0.021 | [2] 0.006 | [3] 0.006 | [4] -0.03 | [5] 0.044

KDM8 isoform 3 (UniProt Q8N371)
inactive: [1] -0.022 | [2] 0.052 | [3] -0.03 | [4] 0.005 | [5] -0.048

KDM5B isoform 2 (UniProt Q9UGL1)
inactive: [1] -0.07 | [2] 0.117 | [3] 0.018 | [4] 0.07 | [5] -0.229

KDSR (UniProt Q06136)
inactive: [1] -0.01 | [2] 0.036 | [3] 0.012 | [4] -0.077 | [5] -0.05

KNL1 (UniProt Q8NG31)
inactive: [1] 0.009 | [2] 0.003 | [3] -0.004 | [4] -0.03 | [5] -0.001

KIF21B (UniProt O75037)
inactive: [1] -0.098 | [2] 0.143 | [3] -0.062 | [4] -0.075 | [5] 0.081

KLC4 isoform 3 (UniProt Q9NSK0)
inactive: [1] 0.011 | [2] 0.004 | [3] -0.003 | [4] 0.01 | [5] 0.014

LANCL1 (UniProt O43813)
inactive: [1] 0.011 | [2] 0.004 | [3] -0.007 | [4] 0.026 | [5] -0.045

KLC1 isoform 6 (UniProt Q07866)
inactive: [1] 0.001 | [2] 0.014 | [3] 0.027 | [4] 0.001 | [5] 0.033

LAMTOR4 (UniProt Q0VGL1)
inactive: [1] -0.014 | [2] 0.01 | [3] -0.002 | [4] -0.054 | [5] -0.056

KIAA0513 (UniProt O60268)
inactive: [1] 0.089 | [2] 0.003 | [3] -0.098 | [4] 0.027 | [5] -0.018

KLHL36 (UniProt Q8N4N3)
inactive: [1] -0.072 | [2] -0.086 | [3] -0.018 | [4] -0.011 | [5] 0.074

KYAT1 (UniProt Q16773)
inactive: [1] 0.035 | [2] 0.026 | [3] 0.028 | [4] -0.02 | [5] -0.018

L1RE1 (UniProt Q9UN81)
inactive: [1] 0.03 | [2] -0.05 | [3] -0.053 | [4] -0.005 | [5] -0.024

LARP4B (UniProt Q92615)
inactive: [1] 0.031 | [2] -0.034 | [3] 0.002 | [4] 0.03 | [5] -0.037

KPNA6 (UniProt O60684)
inactive: [1] -0.014 | [2] -0.043 | [3] 0.1 | [4] 0.004 | [5] 0.019

LARP7 isoform 3 (UniProt Q4G0J3)
inactive: [1] 0.02 | [2] -0.003 | [3] 0.006 | [4] 0.002 | [5] 0

10 successive records from above, quoted:
KIF21B (UniProt O75037)
inactive: [1] -0.098 | [2] 0.143 | [3] -0.062 | [4] -0.075 | [5] 0.081

KLC4 isoform 3 (UniProt Q9NSK0)
inactive: [1] 0.011 | [2] 0.004 | [3] -0.003 | [4] 0.01 | [5] 0.014

LANCL1 (UniProt O43813)
inactive: [1] 0.011 | [2] 0.004 | [3] -0.007 | [4] 0.026 | [5] -0.045

KLC1 isoform 6 (UniProt Q07866)
inactive: [1] 0.001 | [2] 0.014 | [3] 0.027 | [4] 0.001 | [5] 0.033

LAMTOR4 (UniProt Q0VGL1)
inactive: [1] -0.014 | [2] 0.01 | [3] -0.002 | [4] -0.054 | [5] -0.056

KIAA0513 (UniProt O60268)
inactive: [1] 0.089 | [2] 0.003 | [3] -0.098 | [4] 0.027 | [5] -0.018

KLHL36 (UniProt Q8N4N3)
inactive: [1] -0.072 | [2] -0.086 | [3] -0.018 | [4] -0.011 | [5] 0.074

KYAT1 (UniProt Q16773)
inactive: [1] 0.035 | [2] 0.026 | [3] 0.028 | [4] -0.02 | [5] -0.018

L1RE1 (UniProt Q9UN81)
inactive: [1] 0.03 | [2] -0.05 | [3] -0.053 | [4] -0.005 | [5] -0.024

LARP4B (UniProt Q92615)
inactive: [1] 0.031 | [2] -0.034 | [3] 0.002 | [4] 0.03 | [5] -0.037

Additional records follow:

KIF22 (UniProt Q14807)
inactive: [1] 0.047 | [2] 0.077 | [3] 0.014 | [4] -0.159 | [5] -0.198

L3MBTL4 (UniProt Q8NA19)
inactive: [1] -0.057 | [2] 0.044 | [3] 0.014 | [5] -0.102

LAP3 (UniProt P28838)
inactive: [1] -0.043 | [2] 0.021 | [3] -0.139 | [4] -0.056 | [5] -0.285

LARP1 (UniProt Q6PKG0)
inactive: [1] -0.002 | [2] 0.008 | [3] 0.003 | [4] 0.028 | [5] 0.068

LAMP2 (UniProt P13473)
inactive: [1] -0.021 | [2] 0.063 | [3] -0.034 | [4] 0.017 | [5] -0.035

KIF1C (UniProt O43896)
inactive: [1] -0.051 | [2] 0.125 | [3] 0.282 | [5] 0.005

KIF23 isoform 2 (UniProt Q02241)
inactive: [1] 0.032 | [2] 0.044 | [3] 0.038 | [4] -0.013 | [5] 0.045

KNSTRN (UniProt Q9Y448)
inactive: [1] 0.097 | [2] -0.057 | [3] 0 | [4] 0.002 | [5] 0.034

KIF4A (UniProt O95239)
inactive: [1] -0.042 | [2] 0.012 | [3] 0.035 | [4] 0.06 | [5] 0.005

KLHDC3 (UniProt Q9BQ90)
inactive: [1] 0.051 | [2] -0.07 | [3] 0.166 | [4] 0.015 | [5] 0.003

KXD1 (UniProt Q9BQD3)
inactive: [1] 0.066 | [2] -0.116 | [3] 0.081 | [4] 0.034 | [5] -0.003

KIN (UniProt O60870)
inactive: [1] -0.028 | [2] -0.029 | [3] 0.014 | [4] -0.091 | [5] 0.014

KIF2A isoform 4 (UniProt O00139)
inactive: [1] 0.006 | [2] -0.012 | [3] 0.015 | [4] 0.012 | [5] 0.04

L2HGDH (UniProt Q9H9P8)
inactive: [1] -0.019 | [2] 0.01 | [3] 0.004 | [4] 0.013 | [5] -0.021

KPNA2 (UniProt P52292)
inactive: [1] -0.016 | [2] 0.027 | [3] 0.035 | [4] 0.003 | [5] 0.06

KIF20A (UniProt O95235)
inactive: [1] -0.197 | [2] -0.174 | [3] 0.16 | [4] 0.01 | [5] 0.044

LAMA2 (UniProt P24043)
inactive: [1] 0.217 | [2] -0.035 | [3] -0.021 | [5] -0.341

LANCL3 (UniProt Q6ZV70)
inactive: [1] 0.009 | [2] 0.083 | [3] -0.017 | [5] -0.073

KEAP1 (UniProt Q14145)
inactive: [1] 0.029 | [2] 0.016 | [3] 0.014 | [4] -0.018 | [5] -0.02

KIF2C (UniProt Q99661)
inactive: [1] -0.022 | [2] -0.023 | [3] -0.009 | [4] 0.052 | [5] 0.032

LAGE3 (UniProt Q14657)
inactive: [1] 0.067 | [2] -0.058 | [3] -0.087 | [4] -0.044 | [5] 0.018

KIDINS220 isoform 4 (UniProt Q9ULH0)
inactive: [1] 0 | [2] 0.032 | [3] 0.077 | [4] -0.018 | [5] 0.034

KHDRBS1 (UniProt Q07666)
inactive: [1] -0.04 | [2] 0.027 | [3] 0 | [4] 0.058 | [5] 0.045

KPNB1 (UniProt Q14974)
inactive: [1] 0.002 | [2] 0.012 | [3] 0.012 | [4] -0.029 | [5] 0.016

KHK isoform 2 (UniProt P50053)
inactive: [1] -0.01 | [2] 0.034 | [3] -0.003 | [4] -0.137 | [5] 0.142

KIAA0930 isoform 2 (UniProt Q6ICG6)
inactive: [1] 0.3 | [2] -0.034 | [3] -0.051 | [4] 0.07 | [5] 0.031

KDM5C (UniProt P41229)
inactive: [1] -0.01 | [2] 0 | [3] 0.008 | [4] -0.01 | [5] 0.032

KNOP1 (UniProt Q1ED39)
inactive: [1] 0.078 | [2] 0.029 | [3] 0.177 | [4] -0.162 | [5] 0.032

KPNA3 (UniProt O00505)
inactive: [1] -0.058 | [2] 0.115 | [3] 0.02 | [4] -0.005 | [5] 0.049

KRI1 (UniProt Q8N9T8)
inactive: [1] 0.053 | [2] 0.043 | [3] 0.027 | [4] -0.048 | [5] -0.039

KLHL11 (UniProt Q9NVR0)
inactive: [1] 0.069 | [2] 0.043 | [3] -0.069 | [4] 0.025 | [5] 0.029
